PubChem BioAssay AID1508597 | Cure First | 2020
This is a random part of the about 2,100 reagents, under one of the conditions tested. 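Calls flag viability under 80% in either arm, not effects specific to rucaparib; the reference for percent is not stated.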 Entries without a mark were called inactive. A reagent listed more than once was tested more than once; the source does not tell the runs apart. No sequences are given here. Not given: the 100% reference.

Test: 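Knock-downs altering ovarian cancer cell survival with or without PARP inhibitor rucaparib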 (primary screen)
Cell system: human ovarian carcinoma lines grown from tumours: OCI-P5x (papillary serous) and OCI-C5x (clear cell)
Knock-down reagent: siRNA pool against human genes, 1.25 pmol siRNA per well
Duration: 72 h or 96 h, depending on the cell culture
Treatment: rucaparib 20 µM (about IC30) or vehicle, present until read-out
Rucaparib or vehicle: Vehicle
Cell line: OCI-P5x (serous)
Measured: 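Luminescent ATP-based viability assay read 72 or 96 h after transfection, depending on culture, given as normalised percent viability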
Reading the numbers: viability, normalised: higher = more viable cells remaining
Rule for the call: 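a well counts as a hit if its normalised viability is under 80 percent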
Meaning of the calls: active = viability under 80%; inactive = viability 80% or more

no.	Gene	technical replicate	viability, normalised (%)
1	POLD1	1	69.4 (active)
2	POLD1	2	83.8
3	POLD1	3	72.5 (active)
4	NIPBL	1	50.3 (active)
5	NIPBL	2	54.4 (active)
6	NIPBL	3	50.8 (active)
7	RAD54B	1	55.2 (active)
8	RAD54B	1	77.8 (active)
9	RAD54B	2	76.6 (active)
10	RAD54B	2	63.1 (active)
11	RAD54B	3	73.7 (active)
12	RAD54B	3	83.8
13	FGF19	1	66.3 (active)
14	FGF19	2	78.4 (active)
15	FGF19	3	71.8 (active)
16	PET117	1	71.6 (active)
17	PET117	2	75.1 (active)
18	PET117	3	74 (active)
19	XPC	1	80.5
20	XPC	2	76.1 (active)
21	XPC	3	89.8
22	CDK9	1	83.7
23	CDK9	2	85.4
24	CDK9	3	73.6 (active)
25	PIF1	1	77.5 (active)
26	PIF1	2	70.1 (active)
27	PIF1	3	78.2 (active)
28	BTAF1	1	48.2 (active)
29	BTAF1	2	79.6 (active)
30	BTAF1	3	55.8 (active)
31	PDE12	1	68.2 (active)
32	PDE12	2	57.5 (active)
33	PDE12	3	135
34	HMGN2	1	63.4 (active)
35	HMGN2	2	61.2 (active)
36	HMGN2	3	78.1 (active)
37	SIRT2	1	58 (active)
38	SIRT2	2	67.4 (active)
39	SIRT2	3	74.2 (active)
40	AURKC	1	79.6 (active)
41	AURKC	1	51.4 (active)
42	AURKC	2	76.1 (active)
43	AURKC	2	56.7 (active)
44	AURKC	3	63.1 (active)
45	AURKC	3	53.9 (active)
46	TPK1	1	76.9 (active)
47	TPK1	2	70 (active)
48	TPK1	3	58.8 (active)
49	NME2	1	64.3 (active)
50	NME2	2	57.2 (active)
51	NME2	3	119
52	PAXIP1	1	88.3
53	PAXIP1	2	80.5
54	PAXIP1	3	94.3
55	RRM1	1	49.2 (active)
56	RRM1	2	48.3 (active)
57	RRM1	3	41.4 (active)
58	EME2	1	99.1
59	EME2	2	103
60	EME2	3	104
61	FOXA2	1	64.7 (active)
62	FOXA2	2	77.3 (active)
63	FOXA2	3	67.9 (active)
64	CLDN1	1	70.9 (active)
65	CLDN1	2	82.5
66	CLDN1	3	92.3
67	NEK1	1	74.9 (active)
68	NEK1	2	75.3 (active)
69	NEK1	3	61.4 (active)
70	MEAF6	1	72.9 (active)
71	MEAF6	2	75.7 (active)
72	MEAF6	3	76 (active)
73	DDX55	1	71 (active)
74	DDX55	2	66.7 (active)
75	DDX55	3	87.8
